Experimental data: the supplement of paper PMC6411743
± gives the standard deviation of the averaged measurements. The list shows a part of the results.

By UniProt entry, the sequences of proteins in these tests, tags left out. Where a name states a change or a piece, a line headed by the entry shows the natural chain unless it says otherwise.
UniProt Q96G01: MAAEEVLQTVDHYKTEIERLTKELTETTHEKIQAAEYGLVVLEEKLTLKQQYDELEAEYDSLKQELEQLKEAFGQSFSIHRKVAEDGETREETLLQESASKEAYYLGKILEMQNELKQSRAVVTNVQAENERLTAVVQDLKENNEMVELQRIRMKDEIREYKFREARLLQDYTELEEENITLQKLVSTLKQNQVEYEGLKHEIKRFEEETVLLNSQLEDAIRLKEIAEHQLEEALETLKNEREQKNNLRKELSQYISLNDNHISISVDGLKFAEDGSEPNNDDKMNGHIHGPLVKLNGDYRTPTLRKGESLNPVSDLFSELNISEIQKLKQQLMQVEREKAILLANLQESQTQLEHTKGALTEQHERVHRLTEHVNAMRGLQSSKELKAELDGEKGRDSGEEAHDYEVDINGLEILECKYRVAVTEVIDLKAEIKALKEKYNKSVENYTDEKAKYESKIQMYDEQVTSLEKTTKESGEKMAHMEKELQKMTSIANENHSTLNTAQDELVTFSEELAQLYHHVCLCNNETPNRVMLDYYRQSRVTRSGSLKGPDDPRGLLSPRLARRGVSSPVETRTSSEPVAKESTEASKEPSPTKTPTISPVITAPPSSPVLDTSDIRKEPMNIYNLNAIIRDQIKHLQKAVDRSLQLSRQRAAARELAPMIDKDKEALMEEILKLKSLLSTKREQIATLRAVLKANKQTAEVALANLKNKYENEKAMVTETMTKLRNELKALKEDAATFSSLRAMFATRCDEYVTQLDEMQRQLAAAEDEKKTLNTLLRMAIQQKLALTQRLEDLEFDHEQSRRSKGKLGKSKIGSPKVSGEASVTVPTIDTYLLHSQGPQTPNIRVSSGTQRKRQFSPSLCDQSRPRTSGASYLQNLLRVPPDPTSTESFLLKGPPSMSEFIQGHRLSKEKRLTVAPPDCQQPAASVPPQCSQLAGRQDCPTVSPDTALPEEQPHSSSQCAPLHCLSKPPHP
UniProt Q9H4A4: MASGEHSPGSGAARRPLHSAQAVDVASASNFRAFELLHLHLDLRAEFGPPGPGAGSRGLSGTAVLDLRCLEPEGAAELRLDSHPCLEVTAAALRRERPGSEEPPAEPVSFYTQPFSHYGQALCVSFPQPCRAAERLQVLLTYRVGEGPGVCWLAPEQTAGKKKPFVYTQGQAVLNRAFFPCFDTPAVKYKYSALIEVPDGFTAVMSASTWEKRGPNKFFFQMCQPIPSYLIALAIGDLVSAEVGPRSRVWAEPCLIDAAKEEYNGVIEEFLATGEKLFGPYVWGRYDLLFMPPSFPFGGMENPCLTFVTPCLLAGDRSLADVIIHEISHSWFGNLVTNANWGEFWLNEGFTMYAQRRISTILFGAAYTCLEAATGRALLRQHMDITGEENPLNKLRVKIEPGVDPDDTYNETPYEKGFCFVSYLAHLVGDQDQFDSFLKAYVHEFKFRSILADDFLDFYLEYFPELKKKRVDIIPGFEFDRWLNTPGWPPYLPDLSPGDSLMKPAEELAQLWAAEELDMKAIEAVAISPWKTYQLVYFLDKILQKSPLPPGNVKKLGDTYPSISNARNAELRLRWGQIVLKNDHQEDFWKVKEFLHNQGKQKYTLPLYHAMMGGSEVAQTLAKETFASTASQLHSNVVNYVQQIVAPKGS
UniProt Q9BZL6: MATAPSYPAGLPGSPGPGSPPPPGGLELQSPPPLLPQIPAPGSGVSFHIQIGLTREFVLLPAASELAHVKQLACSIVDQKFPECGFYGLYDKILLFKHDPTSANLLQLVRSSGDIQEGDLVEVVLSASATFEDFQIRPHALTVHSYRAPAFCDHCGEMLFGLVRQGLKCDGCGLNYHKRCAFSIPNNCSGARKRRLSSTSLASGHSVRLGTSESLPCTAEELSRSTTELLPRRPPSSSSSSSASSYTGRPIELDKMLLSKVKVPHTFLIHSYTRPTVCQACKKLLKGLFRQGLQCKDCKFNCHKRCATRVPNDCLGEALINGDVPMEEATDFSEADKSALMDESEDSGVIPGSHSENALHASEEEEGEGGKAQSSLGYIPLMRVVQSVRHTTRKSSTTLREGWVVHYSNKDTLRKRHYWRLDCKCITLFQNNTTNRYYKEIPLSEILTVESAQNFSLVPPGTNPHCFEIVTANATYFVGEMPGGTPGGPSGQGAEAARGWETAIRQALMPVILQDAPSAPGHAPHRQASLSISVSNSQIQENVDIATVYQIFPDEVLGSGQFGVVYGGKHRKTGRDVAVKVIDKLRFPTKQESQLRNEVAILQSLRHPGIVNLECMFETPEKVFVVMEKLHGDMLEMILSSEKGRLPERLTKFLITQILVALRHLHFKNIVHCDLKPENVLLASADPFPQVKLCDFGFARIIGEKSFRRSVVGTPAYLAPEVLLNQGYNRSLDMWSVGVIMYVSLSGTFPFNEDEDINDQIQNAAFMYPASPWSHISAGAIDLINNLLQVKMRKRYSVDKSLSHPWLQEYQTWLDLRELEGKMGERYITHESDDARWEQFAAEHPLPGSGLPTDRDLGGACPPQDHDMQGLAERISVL
UniProt Q32P44: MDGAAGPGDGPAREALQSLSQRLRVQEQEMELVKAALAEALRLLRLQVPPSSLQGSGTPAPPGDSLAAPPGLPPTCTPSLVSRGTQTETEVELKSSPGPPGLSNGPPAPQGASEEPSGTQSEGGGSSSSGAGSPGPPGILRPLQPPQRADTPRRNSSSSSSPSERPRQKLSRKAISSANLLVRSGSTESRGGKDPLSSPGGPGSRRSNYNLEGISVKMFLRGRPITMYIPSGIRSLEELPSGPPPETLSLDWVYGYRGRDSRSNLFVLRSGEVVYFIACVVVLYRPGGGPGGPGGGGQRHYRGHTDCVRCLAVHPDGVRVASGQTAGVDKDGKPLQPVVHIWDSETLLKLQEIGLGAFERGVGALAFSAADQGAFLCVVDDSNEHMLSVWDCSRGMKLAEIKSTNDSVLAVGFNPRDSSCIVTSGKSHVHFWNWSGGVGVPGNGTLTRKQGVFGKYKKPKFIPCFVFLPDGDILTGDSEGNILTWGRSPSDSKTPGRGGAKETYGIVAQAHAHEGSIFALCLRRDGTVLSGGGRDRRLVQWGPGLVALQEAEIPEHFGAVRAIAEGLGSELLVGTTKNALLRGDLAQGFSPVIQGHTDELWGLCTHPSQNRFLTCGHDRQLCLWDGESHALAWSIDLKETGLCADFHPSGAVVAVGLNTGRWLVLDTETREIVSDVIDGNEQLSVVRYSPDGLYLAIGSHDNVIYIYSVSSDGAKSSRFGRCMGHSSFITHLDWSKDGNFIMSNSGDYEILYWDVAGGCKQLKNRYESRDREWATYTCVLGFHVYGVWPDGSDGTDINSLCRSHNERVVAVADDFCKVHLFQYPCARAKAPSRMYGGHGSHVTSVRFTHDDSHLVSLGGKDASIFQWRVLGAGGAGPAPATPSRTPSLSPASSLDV

Compound: Nc1nc2c(ncn2[C@@H]2O[C@H](COP(=O)(O)OP(=O)(O)OP(=O)(O)O)[C@@H](O)[C@H]2O)c(=O)[nH]1 [guanosine triphosphate]
Assay: NP40-soluble protein abundance relative to vehicle (solubility fold change) (ratio); higher = more soluble protein in presence of GTP
Protocol: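 Solubility proteome profiling in Jurkat crude lysate. Lysate was treated with Mg-GTP (0.1-10 mM) for 10 min at room temperature and 3 min at 37 °C, then solubilised with 0.8% NP40 and benzonase, followed by ultracentrifugation. Proteins were quantified by TMT10 LC-MS/MS; the value is the NP40-soluble abundance relative to the NP40-processed vehicle, from 3 independent experiments.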

Row | Target | NP40-soluble protein abundance (concentration: 0.1mM) | NP40-soluble protein abundance (concentration: 0.5mM) | NP40-soluble protein abundance (concentration: 1mM) | NP40-soluble protein abundance (concentration: 2mM) | NP40-soluble protein abundance (concentration: 4mM) | NP40-soluble protein abundance (concentration: 6mM) | NP40-soluble protein abundance (concentration: 8mM) | NP40-soluble protein abundance (concentration: 10mM)
1 | A8MVZ6 and related entries (UniProt Q96G01) | 0.975 ± 0.048 | 0.945 ± 0.057 | 0.988 ± 0.048 | 0.98 ± 0.1 | 1 ± 0.074 | 0.949 ± 0.04 | 0.987 ± 0.028 | 0.978 ± 0.045
2 | A6NKB8 and related entries (UniProt Q9H4A4) | 0.997 ± 0.023 | 1.01 ± 0.013 | 0.899 ± 0.017 | 0.915 ± 0.037 | 0.873 ± 0.039 | 0.881 ± 0.031 | 0.851 ± 0.059 | 0.829 ± 0.078
3 | C9JNW5 and related entries (UniProt P83731) | 0.854 ± 0.011 | 0.859 ± 0.0099 | 0.912 ± 0.046 | 0.871 ± 0.11 | 0.817 ± 0.15 | 0.781 ± 0.14 | 0.597 ± 0.077 | 0.837 ± 0.15
4 | B4DTS2 and related entries (UniProt Q9BZL6) | 1.02 ± 0.021 | 1.04 ± 0.034 | 0.992 ± 0.053 | 1.02 ± 0.055 | 1 ± 0.059 | 0.97 ± 0.031 | 0.946 ± 0.045 | 0.946 ± 0.033
5 | B7WPE2 and related entries (UniProt Q32P44) | 1.09 ± 0.03 | 1.12 ± 0.038 | 1.11 ± 0.068 | 1.14 ± 0.095 | 1.14 ± 0.1 | 1.15 ± 0.059 | 1.13 ± 0.086 | 1.08 ± 0.046
